{"sequences": {"note": "Amino acid sequences for entries named in this document (tags omitted).", "UniProt P00573": "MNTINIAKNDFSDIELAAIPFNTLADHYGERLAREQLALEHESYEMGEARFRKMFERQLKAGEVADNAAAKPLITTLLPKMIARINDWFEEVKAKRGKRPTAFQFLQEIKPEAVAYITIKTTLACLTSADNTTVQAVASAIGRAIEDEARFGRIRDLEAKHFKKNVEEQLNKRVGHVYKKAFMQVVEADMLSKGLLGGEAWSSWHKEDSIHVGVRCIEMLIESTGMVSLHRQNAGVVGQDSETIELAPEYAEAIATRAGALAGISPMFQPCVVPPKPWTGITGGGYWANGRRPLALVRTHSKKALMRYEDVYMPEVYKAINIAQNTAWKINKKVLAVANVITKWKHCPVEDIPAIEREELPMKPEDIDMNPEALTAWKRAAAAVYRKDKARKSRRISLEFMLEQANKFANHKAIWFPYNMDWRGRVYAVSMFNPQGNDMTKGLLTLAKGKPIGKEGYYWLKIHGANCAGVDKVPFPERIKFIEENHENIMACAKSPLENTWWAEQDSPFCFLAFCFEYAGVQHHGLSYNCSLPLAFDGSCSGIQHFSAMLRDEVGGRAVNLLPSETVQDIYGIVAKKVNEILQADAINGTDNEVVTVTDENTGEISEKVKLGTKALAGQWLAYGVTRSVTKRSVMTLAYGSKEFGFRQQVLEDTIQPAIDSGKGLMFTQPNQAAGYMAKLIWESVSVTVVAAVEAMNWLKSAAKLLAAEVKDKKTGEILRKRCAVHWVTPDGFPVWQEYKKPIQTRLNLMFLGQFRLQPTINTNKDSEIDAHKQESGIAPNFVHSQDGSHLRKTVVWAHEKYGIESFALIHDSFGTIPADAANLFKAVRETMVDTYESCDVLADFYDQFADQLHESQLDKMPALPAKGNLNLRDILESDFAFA"}, "source": "paper PMC5970183", "target": "T1, human viperin (human) (UniProt Q8WXG1)", "T1 sequence": "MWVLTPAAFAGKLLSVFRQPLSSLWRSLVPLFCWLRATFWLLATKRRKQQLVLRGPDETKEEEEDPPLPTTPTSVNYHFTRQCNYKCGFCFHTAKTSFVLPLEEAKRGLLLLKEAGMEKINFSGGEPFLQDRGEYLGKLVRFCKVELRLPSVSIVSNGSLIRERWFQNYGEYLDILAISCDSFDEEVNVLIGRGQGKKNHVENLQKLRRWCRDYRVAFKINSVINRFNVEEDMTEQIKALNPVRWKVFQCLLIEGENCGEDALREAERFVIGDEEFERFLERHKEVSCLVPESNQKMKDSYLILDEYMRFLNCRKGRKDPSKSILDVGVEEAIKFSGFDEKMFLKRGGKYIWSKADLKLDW", "experiment": "co-IP; HEK293-T7 cells transfected with viperin or control plasmid, lysed 48 h later in M2 lysis buffer (50 mM Tris pH 7.4, 50 mM NaCl, 10% glycerol, 1% Triton X-100, 0.5 mM EDTA, 0.5 mM EGTA); lysate incubated 3 h at 4 °C with anti-viperin antibody on protein A/G agarose beads; Western blot with anti-viperin and anti-T7 polymerase antibodies", "note": "These are yes or no findings as the source states them, for the method shown. In cells and extracts the contact can be indirect."}
{"substance": "Bacteriophage T7 DNA-dependent RNA polymerase (from UniProt P00573 1-883) (enzyme)", "values": [{"measurement": "binding", "result": "no binding"}]}
